The supplement of paper PMC12889115
This is one part of the list. These are raw signals, not scaled to a control.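 In the initial screen, polymyxin B was used at a concentration that permeabilizes Salmonella's outer membrane but not its inner membrane. Maximum growth was set by DMSO wells with or without polymyxin B. Since plates varied, data were ranked per plate, and compounds giving the lowest OD600 advanced as hits.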

Test system: Salmonella enterica serovar Typhimurium SL1344
Assay: bacterial growth OD600 after 18 h with compound and polymyxin B; higher = more bacterial growth (less inhibition)
Settings: 50 µM, Mueller-Hinton broth

SMILES | bacterial growth OD600 (polymyxin B 1 µg/mL) | bacterial growth OD600 (polymyxin B 0.75 µg/mL)
Cc1ccc(-c2nc(CN3CCCCC3c3cccc(F)c3)c(C)o2)o1 (centres undefined) | 0.863 | –
COc1cc(CN(C(=O)C2CCC2)[C@H]2CCCCNC2=O)ccc1OCCc1scnc1C | – | 0.724
Cc1ccc(C(=O)Nc2ccc(N3CCC(NCc4cnn(Cc5ccccc5)c4)CC3)cc2)c(C)c1 | – | 0.834
O=C1CN(C(=O)C2CCN(c3nc(-c4ccccc4)nc4c3CCC4)CC2)CCN1 | – | 0.897
CCOc1cccc(CN2CCCC(c3[nH]ncc3CC(C)C)C2)c1O (centres undefined) | – | 0.943
CCOC(=O)C1(CC2CC2)CCN(S(=O)(=O)c2ccc(C)cc2)CC1 | 0.453 | –
COc1ccccc1C(=O)N(CCc1ccccc1)CC1CCCN(C)C1 (centres undefined) | 0.897 | –
Cc1cnccc1CN(C)C(=O)CC(c1ccccc1)c1ccccc1Cl (centres undefined) | 0.001 | –
CN(C)c1ccc(C(=O)NCCC2CCCCN2C)cn1 (centres undefined) | 0.952 | –
O=C(c1ccc(NCc2ccccc2)nc1)N1CCCN(c2ncccn2)CC1 | – | 0.772
O=C1CCC(C(=O)N2CCC(Cc3ccccc3)CC2)CN1CCN1CCOCC1 (centres undefined) | 1.08 | –
CC(C)c1nccn1CCCNC(=O)c1ccc(N2CC[C@H](O)C2)nc1 | 0.953 | –
CCOC(=O)C1(CCOC)CCCN(Cc2cccn2-c2ccc(Cl)cn2)C1 (centres undefined) | – | 0.77
O=C(NCCc1ccncc1)c1coc(COc2ccccc2F)n1 | 0.939 | –
COc1ccc(-c2cnnc(N3CCCC(OCc4ccccn4)C3)n2)cc1OC (centres undefined) | – | 0.989
COc1ccc(C(=O)CCC(=O)N2CCC(n3nccc3NC(=O)CC(C)C)CC2)cc1 | 1.32 | –
CCOC(=O)CC1CCCCN1C(=O)c1cn(Cc2cccc3ccccc23)nn1 (centres undefined) | 0.49 | –
O=C(NCCC1=CCCCC1)C1CC12CCN(C(=O)c1ccc(N3CCOCC3)cc1)CC2 (centres undefined) | – | 0.843
CC(=O)N1CCN(c2ncccc2CNCc2ccc(C(C)C)cc2)CC1 | – | 0.779

One compound at a time (already shown). Values in the order: bacterial growth OD600 (polymyxin B 1 µg/mL)	bacterial growth OD600 (polymyxin B 0.75 µg/mL)
Cc1cnccc1CN(C)C(=O)CC(c1ccccc1)c1ccccc1Cl (centres undefined) in the list: 0.001	–
COc1cc(CN(C(=O)C2CCC2)[C@H]2CCCCNC2=O)ccc1OCCc1scnc1C in the list: –	0.724
